# Laboratory results published in the supplement of paper PMC3682954.
# Several values for one entry are separate records, joined by “and”; a condition that tells them apart may be missing. Equal values may be shown once. Where a name gives a salt, the structure may show the parent alone. ± gives the standard deviation of the averaged measurements. The list shows a part of the results. Repeats are few or missing, and single values can be far off.
# System: RAW 264.7
# Assay: HMGB1-induced TNF-alpha production relative to HMGB1-stimulated control; higher = more TNF-alpha secretion (less inhibition)
# Details: stimulus: HMGB1 5 ug/ml, 18 h
# [1] = compound concentration: 1 ug/ml
SMILES,HMGB1-induced TNF-alpha production (compound concentration: 3 uM) [%],HMGB1-induced TNF-alpha production [1]
Cc1c(N)nc([C@H](CC(N)=O)NC[C@H](N)C(N)=O)nc1C(=O)N[C@H](C(=O)N[C@H](C)[C@@H](O)[C@H](C)C(=O)N[C@H](C(=O)NCCc1nc(-c2nc(C(=O)NCCC[S+](C)C)cs2)cs1)[C@@H](C)O)[C@@H](OC1OC(CO)C(O)C(O)C1OC1OC(CO)C(O)C(OC(N)=O)C1O)c1cnc[nH]1 (stereo partly specified) [Bleomycin],136,–
COc1cc2c(cc1OC)C1CC(=O)C(CC(C)C)CN1CC2 (stereo unspecified) [Tetrabenazine],118,–
CCCCC/C=C\C/C=C\C/C=C\C/C=C\CCCC(=O)Nc1ccc(O)cc1,126,–
CCNC(=O)[C@H]1O[C@@H](n2cnc3c(N)ncnc32)[C@H](O)[C@@H]1O [5'-N-Ethylcarboxamidoadenosine],104,–
O=c1cccc2n1CC1CC2CN(CCO)C1 (stereo unspecified),–,68.8% and 80%
Cc1cccc(C)c1NC1=NCCCS1 [Xylazine hydrochloride],110,–
Cc1cccc(C)c1NC1=NCCCS1 [Xylazine],100 ± 6.8,–
Cc1cccc(C)c1NC1=NCCCS1,59,–
O=C1CN=C(c2ccccc2)c2cc([N+](=O)[O-])ccc2N1 [Nitrazepam],91.3,–
Cc1ccc(S(=O)(=O)N[C@@H](CCCCN)C(=O)CCl)cc1 [Na-p-Tosyl-L-lysine chloromethyl ketone hydrochloride],105,–
CCCN1CCC[C@@H](c2cccc(O)c2)C1 [S(-)-3PPP hydrochloride],111,–
CN1C(=O)COc2c(C(=O)NC3CN4CCC3CC4)cc(Cl)cc21 (stereo unspecified) [Azasetron],103,–
CC1(C)S[C@@H]2[C@H](N)C(=O)N2[C@H]1C(=O)O [(+)-6-Aminopenicillanic acid],–,80.9%
CC(=O)OCC1=C(C(=O)O)N2C(=O)[C@@H](NC(=O)CCC[C@@H](N)C(=O)O)[C@H]2SC1,96.3,–
NC(=O)CN1CCCC1=O [Piracetam],84.9 ± 11,–
NC(=O)CN1CCCC1=O,83,–
COc1cc2c(cc1OC)C(C)NCC2 (stereo unspecified),71.5,–
NCc1cc(O)no1 [Muscimol hydrobromide],76,–

# Exported with bars between the fields: part of the list above.
SMILES | HMGB1-induced TNF-alpha production (compound concentration: 3 uM) [%] | HMGB1-induced TNF-alpha production [1]
Cc1cccc(C)c1NC1=NCCCS1 [Xylazine] | 100 ± 6.8 | –
Cc1cccc(C)c1NC1=NCCCS1 | 59 | –

# More records:

SMILES,HMGB1-induced TNF-alpha production (compound concentration: 3 uM) [%],HMGB1-induced TNF-alpha production [1]
Oc1ccc(Cl)cc1,92.6,–
CN1CC[C@@]2(C)c3cc(OC(=O)Nc4ccccc4)ccc3N(C)[C@@H]12 [Phenserine],74.2,–
N#CCCN [3-Aminopropionitrile fumarate],94.6,–
CC(C)c1c(CN(C)C(C)Cc2ccccc2)n(C)n(-c2ccccc2)c1=O (stereo unspecified) [Famprofazone],82.4,–
CC(C)c1c(CN(C)C(C)Cc2ccccc2)n(C)n(-c2ccccc2)c1=O (stereo unspecified),72.8,–
C=C(C)[C@@H]1[C@H]2OC(=O)[C@@H]1[C@]1(O)C[C@H]3O[C@]34C(=O)O[C@H]2[C@]14C,108,–
C=C(C)[C@@H]1[C@H]2OC(=O)[C@@H]1[C@]1(O)C[C@H]3O[C@]34C(=O)O[C@H]2[C@]14C [Picrotoxinin],105,72.9%
C=CCN1C[C@H](C(=O)N(CCCN(C)C)C(=O)NCC)C[C@@H]2c3cccc4[nH]cc(c34)C[C@H]21 [Cabergoline],90.4,–
Oc1ccc2c3c1O[C@H]1c4oc5ccccc5c4C[C@@]4(O)[C@@H](C2)N(CC2CC2)CC[C@]314 [Naltriben methanesulfonate hydrate],105,–
Oc1ccc2c3c1O[C@H]1c4oc5ccccc5c4C[C@@]4(O)[C@@H](C2)N(CC2CC2)CC[C@]314 [Naltriben methanesulfonate],107,–
O=P1(NCCCl)OCCCN1CCCl (stereo unspecified),88.6 ± 4.8,–
O=P1(NCCCl)OCCCN1CCCl (stereo unspecified) [Ifosfamide],99.6 ± 10,–
C=CCc1ccccc1OCC(O)CNC1(C)CCC(C(C)(C)NC(=O)CBr)CC1 (stereo unspecified) [Bromoacetyl alprenolol menthane],92.2,–
CC(=O)OCC(=O)[C@H]1CC[C@H]2[C@@H]3CC[C@H]4C[C@H](O)CC[C@]4(C)[C@H]3C(=O)C[C@]12C [Alfadolone acetate],78.3,–
Cc1c2ccncc2c(C)c2c1[nH]c1ccccc12 [Ellipticine],41.9,–
CC(C)NP(=O)(NC(C)C)OP(=O)(NC(C)C)NC(C)C [Tetraisopropyl pyrophosphoramide],95.4,–
CC(=O)NBr [N-Bromoacetamide],83.9,–
